Results on three compounds are retold here after BindingDB's records for PubMed 9686407 (Sri International, 1998).

Sequences of proteins named here, by UniProt entry; tags and fusion partners are left off. A line that says so, or that is headed by a name, gives the form on record, which may keep a tag or linker.
UniProt P35462, as listed by the source: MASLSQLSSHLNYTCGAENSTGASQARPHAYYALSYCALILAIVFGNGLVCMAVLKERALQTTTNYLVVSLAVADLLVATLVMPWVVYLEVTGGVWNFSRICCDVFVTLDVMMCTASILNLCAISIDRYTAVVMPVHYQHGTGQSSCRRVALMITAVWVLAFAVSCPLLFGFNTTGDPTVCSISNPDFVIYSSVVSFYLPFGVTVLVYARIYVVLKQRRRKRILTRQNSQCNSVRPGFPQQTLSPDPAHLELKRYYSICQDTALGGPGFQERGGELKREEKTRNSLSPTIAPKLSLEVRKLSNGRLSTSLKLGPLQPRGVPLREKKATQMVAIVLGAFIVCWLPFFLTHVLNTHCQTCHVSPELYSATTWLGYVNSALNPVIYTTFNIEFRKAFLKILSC
UniProt P21728, whole entry: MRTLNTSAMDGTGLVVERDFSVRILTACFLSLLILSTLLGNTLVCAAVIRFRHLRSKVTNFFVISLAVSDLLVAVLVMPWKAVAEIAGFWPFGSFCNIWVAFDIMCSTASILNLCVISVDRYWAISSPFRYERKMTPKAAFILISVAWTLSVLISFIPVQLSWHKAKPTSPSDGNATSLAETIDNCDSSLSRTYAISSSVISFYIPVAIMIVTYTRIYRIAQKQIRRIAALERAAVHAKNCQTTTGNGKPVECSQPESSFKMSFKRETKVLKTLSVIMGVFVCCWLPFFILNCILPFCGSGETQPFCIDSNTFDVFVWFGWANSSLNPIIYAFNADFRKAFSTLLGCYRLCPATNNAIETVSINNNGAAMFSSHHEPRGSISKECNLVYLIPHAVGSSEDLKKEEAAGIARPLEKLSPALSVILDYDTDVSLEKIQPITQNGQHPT

Assay [1] addresses T1, 5-hydroxytryptamine receptor 3A (Mus musculus, UniProt P23979).
T1 sequence (P23979 whole entry): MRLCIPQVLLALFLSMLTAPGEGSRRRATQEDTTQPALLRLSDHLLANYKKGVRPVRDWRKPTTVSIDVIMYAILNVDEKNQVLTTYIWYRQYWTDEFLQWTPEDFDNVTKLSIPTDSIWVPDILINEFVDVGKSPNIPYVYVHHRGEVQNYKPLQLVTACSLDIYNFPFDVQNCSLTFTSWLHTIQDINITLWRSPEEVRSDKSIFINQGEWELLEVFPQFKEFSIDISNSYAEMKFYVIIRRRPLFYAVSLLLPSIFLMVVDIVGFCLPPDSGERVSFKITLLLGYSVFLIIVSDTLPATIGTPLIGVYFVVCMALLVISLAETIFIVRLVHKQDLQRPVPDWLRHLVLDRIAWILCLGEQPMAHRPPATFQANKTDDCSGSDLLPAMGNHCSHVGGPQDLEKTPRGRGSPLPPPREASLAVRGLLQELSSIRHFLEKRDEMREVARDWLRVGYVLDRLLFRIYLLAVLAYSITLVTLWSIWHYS

The target of a further assay is D(3) dopamine receptor (Homo sapiens, UniProt P35462).
Another assay deals with D(1A) dopamine receptor (Homo sapiens, UniProt P21728).

Each structure is given as a SMILES string. Counter-ions that a name gives are not always drawn.

One may read the Ki as a dissociation constant, usually derived from enzyme kinetics or from competition with a known ligand. Low readings indicate tighter binding, high ones weaker binding. In assay [1], `CC(C)NC[C@H](O)COc1cccc2ccccc12` [Propanolol,(+/-)] gave an inhibition constant (Ki) of more than 10000 nM.

In the case of `CN1CCC(=C2c3ccccc3C=Cc3ccccc32)CC1` [5-(1-methylpiperidylidene-4)-5H-dibenzo(a,d)cyclopheptene], the values for the Ki on D(3) dopamine receptor and at D(1A) dopamine receptor were 8 nM and 117 nM, respectively. At D(1A) dopamine receptor, `CN(C)CCCN1c2ccccc2CCc2ccc(Cl)cc21` [CLOMIPRAMINE HYDROCHLORIDE] displayed an inhibition constant (Ki) of 219 nM.
